Experiment [1] addresses T1, CAPRIN-1 protein (UniProt Q14444).
T1 sequence (looked up): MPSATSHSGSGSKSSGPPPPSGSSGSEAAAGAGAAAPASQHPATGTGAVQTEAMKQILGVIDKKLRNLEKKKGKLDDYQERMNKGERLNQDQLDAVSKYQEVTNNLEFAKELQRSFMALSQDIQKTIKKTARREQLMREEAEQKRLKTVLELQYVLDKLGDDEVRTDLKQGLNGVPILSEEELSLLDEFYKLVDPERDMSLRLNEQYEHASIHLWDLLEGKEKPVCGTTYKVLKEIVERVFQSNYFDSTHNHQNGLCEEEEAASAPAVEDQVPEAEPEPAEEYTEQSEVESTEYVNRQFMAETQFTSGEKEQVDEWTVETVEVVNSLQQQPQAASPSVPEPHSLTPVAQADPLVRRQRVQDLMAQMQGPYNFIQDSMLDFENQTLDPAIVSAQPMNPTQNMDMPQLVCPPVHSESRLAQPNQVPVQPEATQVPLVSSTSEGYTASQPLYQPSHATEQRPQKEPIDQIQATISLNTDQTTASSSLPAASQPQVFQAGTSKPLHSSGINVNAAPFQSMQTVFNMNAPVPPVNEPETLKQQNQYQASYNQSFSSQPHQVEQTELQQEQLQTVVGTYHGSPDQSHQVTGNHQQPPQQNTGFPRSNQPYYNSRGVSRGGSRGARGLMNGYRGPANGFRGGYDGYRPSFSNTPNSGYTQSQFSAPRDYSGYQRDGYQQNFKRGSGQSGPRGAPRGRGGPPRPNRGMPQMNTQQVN
In words: ELISA. Background: An ELISA detects its analyte on a solid surface through an enzyme-linked reagent.

Experiment [2] has as its target T2, CAPRIN-1 protein on the cell membrane surface of cancer cells (UniProt Q14444).
T2 sequence (looked up): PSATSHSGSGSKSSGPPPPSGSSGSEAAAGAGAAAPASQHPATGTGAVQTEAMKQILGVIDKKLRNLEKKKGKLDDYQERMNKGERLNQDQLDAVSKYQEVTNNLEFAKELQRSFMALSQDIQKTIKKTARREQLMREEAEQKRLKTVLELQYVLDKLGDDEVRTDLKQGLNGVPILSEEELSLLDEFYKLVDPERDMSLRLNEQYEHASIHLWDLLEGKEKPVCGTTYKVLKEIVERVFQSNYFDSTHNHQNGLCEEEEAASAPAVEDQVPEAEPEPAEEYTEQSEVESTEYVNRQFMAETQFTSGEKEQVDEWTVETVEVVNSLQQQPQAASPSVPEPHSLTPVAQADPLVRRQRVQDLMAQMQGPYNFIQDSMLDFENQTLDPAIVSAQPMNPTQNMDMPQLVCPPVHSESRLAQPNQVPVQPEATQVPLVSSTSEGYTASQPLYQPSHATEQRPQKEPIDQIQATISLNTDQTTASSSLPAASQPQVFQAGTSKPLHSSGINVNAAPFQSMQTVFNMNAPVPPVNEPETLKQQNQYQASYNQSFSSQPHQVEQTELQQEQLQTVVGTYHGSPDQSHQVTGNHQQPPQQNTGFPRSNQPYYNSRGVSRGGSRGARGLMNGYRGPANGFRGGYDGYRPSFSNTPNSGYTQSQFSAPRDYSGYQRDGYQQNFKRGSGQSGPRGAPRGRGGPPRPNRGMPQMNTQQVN
In words: flow cytometry.

In experiment [3] the target is T3, CAPRIN-1 on the cell membrane surface of mouse cancer cells (mouse) (UniProt Q60865).
T3 sequence (looked up): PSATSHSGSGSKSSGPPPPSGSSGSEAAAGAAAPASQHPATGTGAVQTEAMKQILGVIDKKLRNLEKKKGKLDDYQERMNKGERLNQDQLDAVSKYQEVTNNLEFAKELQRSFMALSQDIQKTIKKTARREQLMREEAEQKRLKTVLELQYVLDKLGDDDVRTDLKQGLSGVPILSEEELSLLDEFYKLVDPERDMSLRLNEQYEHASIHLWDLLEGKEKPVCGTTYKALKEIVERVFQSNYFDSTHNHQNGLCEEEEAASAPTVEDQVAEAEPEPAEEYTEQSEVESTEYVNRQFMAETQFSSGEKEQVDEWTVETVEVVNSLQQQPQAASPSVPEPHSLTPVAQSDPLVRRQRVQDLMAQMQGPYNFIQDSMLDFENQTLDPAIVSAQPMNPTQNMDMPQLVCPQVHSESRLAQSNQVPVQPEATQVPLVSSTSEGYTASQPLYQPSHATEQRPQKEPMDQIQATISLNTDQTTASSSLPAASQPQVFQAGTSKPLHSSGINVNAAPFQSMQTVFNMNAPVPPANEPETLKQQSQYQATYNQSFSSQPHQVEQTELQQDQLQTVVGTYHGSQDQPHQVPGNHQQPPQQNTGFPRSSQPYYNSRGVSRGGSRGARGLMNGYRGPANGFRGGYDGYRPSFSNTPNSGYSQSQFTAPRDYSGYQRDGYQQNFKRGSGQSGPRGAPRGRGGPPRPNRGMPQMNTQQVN
In words: 4T1 cells.

Results are given in words; binding and its absence hold for the method and conditions named. Some entries that bind do so weakly or less than the wild type.

B1: Conjugate 242 (antibody, V domains shown)
VH: EVQLVESGGGLVQPGGSLRLSCAASGFSLSSHSLGWVRQAPGKGLEWIGDIRSGGSAYYANWAKGRFTISRDNSKNTLYLQMNSLRAEDTAVYFCTRTNGPSDLTNRLDLWGQGTLVTVSS
VL: EQVLTQSPSSLSASVGDRVTINCQASQSLYNNENLAWFQQKPGKVPKRLIYGASTLASGVSSRFSGSGSGTEFTLTISNLQPEDFAIYYCLGEFSCGSADCFAFGGGTKVEIK
On to B1, for which the binding result in experiment [1] and in experiment [2] was “binds” throughout.

B2: Conjugate 38 (antibody, human IgG1, V domains shown)
VH: EQSLVESGGGLVQPGGSLRLSCAASGFSLSSHSLGWVRQAPGKGLEWIGDIRSGGSAYYANWAKGRFTISRDNSKNTLYLQMNSLRAEDTAVYYCTRTNGPSDLTNRLDLWGQGTLVTVSS
VL: QVLTQSPSSLSASVGDRVTINCQASQSLYNNENLAWFQQKPGKVPKRLIYGASTLASGVSSRFSGSGSGTEFTLTISSLQCEDFAIYYCLGEFSCGSADCFAFGGGTKVEIK
B2: the binding entry in experiment [1] and in experiment [2] was “binds” in each case.

B3: Conjugate 42 (antibody, human IgG1, V domains shown)
VH: EQSLVESGGGLVQPGGSLRLSCAASGFSLSSHSLGWVRQAPGKGLEWIGDIRSGGSAYYANWAKGRFTISRDNSKNTLYLQMNSLRAEDTAVYYCTRTNGPSDLTNRLDLWGQGTLVTVSS
VL: QVLTQSPSSLSASVGDRVTINCQASQSLYNNENLAWFQQKPGKVPKRLIYGASTLASGVSSRFSGSGSGTEFTLTISSLQCEDFAIYYCLGEFSCGSADCFAFGGGTKVEIK
For the molecule B3, the binding entry in experiment [1] and in experiment [2] was “binds” throughout.

B4: Conjugate 32 (antibody, V domains shown)
VH: QSLEESGGDLVKPGASLTLTCTASGFSFSGSYYMSWVRQAPGKGLEWIAYIYIGDGVTAYANWAKGRFTISKASSTTVTLQMTSLTAADTATYFCARGNKLWGPGTLVTVSS
VL: DVVMTQTPASVEAAVGGTVTIKCQASQSISSYLAWYQQKPGQPPKRLIYDASNLDSGVPSRFKGSGSGTDFTITISDLECADAATYYCQCTAVSSATIYGNAFGGGTEVVVK
Consider B4, for which the binding entry in experiment [1], in experiment [2] and in experiment [3] was “binds” throughout.

B5: Conjugate 36 (antibody, V domains shown)
VH: QSLEESGGDLVKPGASLTLTCTASGFSFSGSYYMSWVRQAPGKGLEWIAYIYIGDGVTAYANWAKGRFTISKASSTTVTLQMTSLTAADTATYFCARGNKLWGPGTLVTVSS
VL: DVVMTQTPASVEAAVGGTVTIKCQASQSISSYLAWYQQKPGQPPKRLIYDASNLDSGVPSRFKGSGSGTDFTITISDLECADAATYYCQCTAVSSATIYGNAFGGGTEVVVK
Regarding B5, the binding result in experiment [1], in experiment [2] and in experiment [3] was “binds” throughout.
